Experimental data taken from patent publication US8394779B2, “Methods of modulating angiogenesis via TRPV4” (Children's Medical Center Corporation, priority 2008, dated 2013).
For at least one compound, name, drawing or mass did not settle the structure.

Legend:
PI3K = assay: Strain-induced PI3K activity (GFP-AKT-PH translocation, AKT Ser-473 phosphorylation); type: cell-based, bovine
FAK = assay: Strain-dependent FAK phosphorylation, Western blot; type: cell-based, bovine; conditions: strain 15%, 15 min; LY 40 μM
β1 integrin = assay: Strain-induced β1 integrin activation (GST-FNIII8-11 / 12G10 binding, T788/789 phosphorylation); type: cell-based; conditions: bovine CE cells, GST-FNIII8-11 and 12G10 binding
Procedure: Western blotting were performed according to methods published in Mammoto et. al. (2007) (J. Cell Sci., 120:456-467). Membranes containing transferred protein were blocked in 3% BSA/TBST for 1 h and incubated overnight with primary antibodies against AKT and phospho Ser-473 AKT (1:1000), phospho-Thr 788/789 of […] integrin cytoplasmic tail (1:1000), ERK1/2 and phospho ERK1/2 (1:1000), FAK and phospho FAK-pY397 (1:1000), actin (1:1000) and TRPV4 (1:1000) at 4° C. The membranes were subsequently washed incubated with HRP-conjugated secondary antibodies (1:5000) for 1 h and washed and incubated with SUPERSIGNAL® West Pico ECL reagent from Pierce Biotechnology Inc. (USA) and exposed to Kodak X-ray film (SIGMA ALDRICH®).
β1 integrin activation was measured using a glutathione S-transferase (GST) fusion protein consisting of FN III repeat 8-11 domains or 12G10 antibodies (Orr, A. W. et. al., 2006, Mol. Biol. Cell 17:4686-4697). Briefly, cells subjected to mechanical stretch were incubated with either 5 μg/ml of GST-FN III8-11 protein or 12G10 antibodies in PBS containing Ca^2+ and Mg^2+ for 30 min at 37° C., washed and lysed in SDS-sample buffer. The samples were separated on SDS-PAGE and the bound reagents were assessed on Western blots using anti GST-antibodies and HRP-conjugated secondary antibodies.

bovine CE cells = assay: Cyclic strain-induced CE cell reorientation (alignment); type: cell-based
Procedure: CE cells cultured on fibronectin-coated 6 well UNIFLEX™ (FLEXCELL® International) plates for 24 hours were subjected to uniaxial cyclic stretch (10% elongation; 1 Hz frequency) for 1-2 h using a FLEXERCELL® TENSION PLUS™ System (FLEXCELL® International). In some experiments, CE cells were plated on fibronectin-coated 6 well BIOFLEX® (FLEXCELL® International) for lh and subjected to static stretch (15% elongation) for 1-15 min. Control cells were maintained under identical conditions in the absence of strain application. […] Images were acquired for every 4 seconds and analyzed using IP lab software and Microsoft Excel as described in Matthews, et. al. (2006) (J. Cell Sci., 119:508-518). Calcium imaging with TRPV channel activators was performed on cells cultured on MatTek glass bottomed dishes on LEICA® Confocal Microscope and analyzed using LEICA® software and MICROSOFT® EXCEL®. siRNA knock down of TRPV channels: smart pool siRNAs (10 nM) of TRPV2, TRPV4 (both from Dharmacon), TRPC1 (AMBION®) or control (QIAGEN®) siRNAs was transfected into CE cells using SILENTFECT™ reagent (BIORAD®) as described in Mammoto et. al. (2007) (J. Cell Sci., 120:456-467). […] The knock down of TRPV channel expression was assessed using RT-PCR with species-specific primers and Western blotting. […]

O=c1cc(N2CCOCC2)oc2c(-c3ccccc3)cccc12 [LY294002]
strain-induced AKT phosphorylation at Ser-473 (PI3K; Western blot): abolished
strain-induced translocation of AKT-PH-GFP to the membrane (PI3K; mechanical strain 15%): abolished
FAK activation (FAK-pY397) (FAK): suppressed
β1 integrin activation in response to mechanical strain (β1 integrin): prevented
CE cell reorientation / re-alignment induced by mechanical strain (bovine CE cells): greatly reduced
